This is one part of the list.
Columns and labels:
Test in all cases: glycan array binding signal (z-score within array); higher = stronger binding
Settings in all cases: glycan notation: IUPAC condensed, linker removed
[1] = biological target: Fuc(a1-3)[Gal3S(b1-4)]GlcNAc
Procedure, shortened: (§1)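 Arrays were curated from the Consortium for Functional Glycomics database, 3228 in total, and kept only where the protein sequence was available. Binding is expressed as a within-array Z-score. This score was averaged across arrays of the same protein sequence at different concentrations or buffers and across linkers, and negative values can be read as non-binding.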

[2] = biological target: Fuc(a1-3)[Gal3S(b1-4)]GlcNAc6S
Procedure, shortened: as §1

[3] = biological target: Fuc(a1-3)[GalNAc(b1-4)]GlcNAc
Procedure, shortened: as §1

[4] = biological target: Fuc(a1-3)[GalNAc(b1-4)]GlcNAc6S
Procedure, shortened: as §1

Fuc(a1-4)GlcNAc = biological target: Fuc(a1-4)GlcNAc
Procedure, shortened: as §1

Fuc(b1-3)GlcNAc = biological target: Fuc(b1-3)GlcNAc
Procedure, shortened: as §1

Gal(a1-2)Gal = biological target: Gal(a1-2)Gal
Procedure, shortened: as §1

Gal(a1-3)Gal = biological target: Gal(a1-3)Gal
Procedure, shortened: as §1

Gal(a1-3)Gal(b1-3)GlcNAc = biological target: Gal(a1-3)Gal(b1-3)GlcNAc
Procedure, shortened: as §1

[5] = biological target: Gal(a1-3)Gal(b1-3)GlcNAc(b1-2)Man
Procedure, shortened: as §1

[6] = biological target: Gal(a1-3)Gal(b1-3)GlcNAc(b1-2)Man(a1-3)[Gal(a1-3)Gal(b1-3)GlcNAc(b1-2)Man(a1-6)]Man(b1-4)GlcNAc(b1-4)GlcNAc
Procedure, shortened: as §1

[7] = biological target: Gal(a1-3)Gal(b1-3)GlcNAc(b1-3)GalNAc
Procedure, shortened: as §1

[8] = biological target: Gal(a1-3)Gal(b1-3)GlcNAc(b1-6)GalNAc
Procedure, shortened: as §1

[9] = biological target: Gal(a1-3)Gal(b1-3)[Fuc(a1-4)]GlcNAc(b1-2)Man(a1-3)[Gal(a1-3)Gal(b1-3)[Fuc(a1-4)]GlcNAc(b1-2)Man(a1-6)]Man(b1-4)GlcNAc(b1-4)GlcNAc
Procedure, shortened: as §1

Gal(a1-3)Gal(b1-4)Glc = biological target: Gal(a1-3)Gal(b1-4)Glc
Procedure, shortened: as §1

Gal(a1-3)Gal(b1-4)GlcNAc = biological target: Gal(a1-3)Gal(b1-4)GlcNAc
Procedure, shortened: as §1

[10] = biological target: Gal(a1-3)Gal(b1-4)GlcNAc(b1-2)Man
Procedure, shortened: as §1

[11] = biological target: Gal(a1-3)Gal(b1-4)GlcNAc(b1-2)Man(a1-3)[Gal(a1-3)Gal(b1-4)GlcNAc(b1-2)Man(a1-6)]Man(b1-4)GlcNAc(b1-4)GlcNAc
Procedure, shortened: as §1

[12] = biological target: Gal(a1-3)Gal(b1-4)GlcNAc(b1-3)GalNAc
Procedure, shortened: as §1

[13] = biological target: Gal(a1-3)Gal(b1-4)GlcNAc(b1-6)GalNAc
Procedure, shortened: as §1

[14] = biological target: Gal(a1-3)Gal(b1-4)[Fuc(a1-3)]GlcNAc
Procedure, shortened: as §1

[15] = biological target: Gal(a1-3)Gal(b1-4)[Fuc(a1-3)]GlcNAc(b1-2)Man(a1-3)[Gal(a1-3)Gal(b1-4)[Fuc(a1-3)]GlcNAc(b1-2)Man(a1-6)]Man(b1-4)GlcNAc(b1-4)GlcNAc
Procedure, shortened: as §1

Gal(a1-3)GalNAc = biological target: Gal(a1-3)GalNAc
Procedure, shortened: as §1

[16] = biological target: Gal(a1-3)[Gal(a1-4)]Gal(b1-4)GlcNAc
Procedure, shortened: as §1

[17] = biological target: Gal(a1-4)Gal(b1-3)GlcNAc(b1-2)Man(a1-3)[Gal(a1-4)Gal(b1-3)GlcNAc(b1-2)Man(a1-6)]Man(b1-4)GlcNAc(b1-4)GlcNAc
Procedure, shortened: as §1

Gal(a1-4)Gal(b1-4)Glc = biological target: Gal(a1-4)Gal(b1-4)Glc
Procedure, shortened: as §1

Gal(a1-4)Gal(b1-4)GlcNAc = biological target: Gal(a1-4)Gal(b1-4)GlcNAc
Procedure, shortened: as §1

[18] = biological target: Gal(a1-4)Gal(b1-4)GlcNAc(b1-2)Man(a1-3)[Gal(a1-4)Gal(b1-4)GlcNAc(b1-2)Man(a1-6)]Man(b1-4)GlcNAc(b1-4)GlcNAc
Procedure, shortened: as §1

[19] = biological target: Gal(a1-4)Gal(b1-4)GlcNAc(b1-3)Gal(b1-4)Glc
Procedure, shortened: as §1

Gal(a1-4)GlcNAc = biological target: Gal(a1-4)GlcNAc
Procedure, shortened: as §1

Gal(a1-6)Glc = biological target: Gal(a1-6)Glc
Procedure, shortened: as §1

Gal(b1-2)Gal = biological target: Gal(b1-2)Gal
Procedure, shortened: as §1

Gal(b1-3)Gal = biological target: Gal(b1-3)Gal
Procedure, shortened: as §1

Gal(b1-3)Gal(b1-4)GlcNAc = biological target: Gal(b1-3)Gal(b1-4)GlcNAc
Procedure, shortened: as §1

Gal(b1-3)GalNAc = biological target: Gal(b1-3)GalNAc
Procedure, shortened: as §1

[20] = biological target: Gal(b1-3)GalNAc(a1-3)[Fuc(a1-2)]Gal(b1-4)Glc
Procedure, shortened: as §1

[21] = biological target: Gal(b1-3)GalNAc(a1-3)[Fuc(a1-2)]Gal(b1-4)GlcNAc
Procedure, shortened: as §1

B1: Epa19 (Candida glabrata) (protein)
chain: MGSSHHHHHHSSGLVPRGSHMASSKDPTRFPIGCSPQVLKTQPGLAVKLYSYGHPVPGCSYITYQYPDFPRSGYKKERKLADITGVNGKIDIDLKPNDPCRVLTGHLPSNYNYPDTLTYTNFTMILYGYFQPKVTGYHTFNLEADDLLFMNLGAGNAFDCCKAESTLDNFGNYQSYSLWGSDYAKANITVFLVSGVYYPIRLFYVNRDNNAVIDFSFTTEFDKEKVHDFTSYFFSASDGEQCPGSV
- glycan array binding signal (z-score) [1]: -0.083
- glycan array binding signal (z-score) [2]: 0.506
- glycan array binding signal (z-score) [3]: -0.04
- glycan array binding signal (z-score) [4]: -0.231
- glycan array binding signal (z-score) (Fuc(a1-4)GlcNAc): -0.053
- glycan array binding signal (z-score) (Fuc(b1-3)GlcNAc): -0.531
- glycan array binding signal (z-score) (Gal(a1-2)Gal): -0.54
- glycan array binding signal (z-score) (Gal(a1-3)Gal): 1.19
- glycan array binding signal (z-score) (Gal(a1-3)Gal(b1-3)GlcNAc): 0.407
- glycan array binding signal (z-score) [5]: -0.027
- glycan array binding signal (z-score) [6]: 0.439
- glycan array binding signal (z-score) [7]: -0.091
- glycan array binding signal (z-score) [8]: 0.332
- glycan array binding signal (z-score) [9]: -0.175
- glycan array binding signal (z-score) (Gal(a1-3)Gal(b1-4)Glc): -0.098
- glycan array binding signal (z-score) (Gal(a1-3)Gal(b1-4)GlcNAc): -0.173
- glycan array binding signal (z-score) [10]: -0.692
- glycan array binding signal (z-score) [11]: -0.409
- glycan array binding signal (z-score) [12]: 0.181
- glycan array binding signal (z-score) [13]: -0.287
- glycan array binding signal (z-score) [14]: -0.45
- glycan array binding signal (z-score) [15]: 2.47
- glycan array binding signal (z-score) (Gal(a1-3)GalNAc): 0.456
- glycan array binding signal (z-score) [16]: -0.339
- glycan array binding signal (z-score) [17]: -0.21
- glycan array binding signal (z-score) (Gal(a1-4)Gal(b1-4)Glc): 0.975
- glycan array binding signal (z-score) (Gal(a1-4)Gal(b1-4)GlcNAc): 0.377
- glycan array binding signal (z-score) [18]: -0.109
- glycan array binding signal (z-score) [19]: -0.345
- glycan array binding signal (z-score) (Gal(a1-4)GlcNAc): 0.392
- glycan array binding signal (z-score) (Gal(a1-6)Glc): -0.012
- glycan array binding signal (z-score) (Gal(b1-2)Gal): -0.099
- glycan array binding signal (z-score) (Gal(b1-3)Gal): 0.032
- glycan array binding signal (z-score) (Gal(b1-3)Gal(b1-4)GlcNAc): -0.035
- glycan array binding signal (z-score) (Gal(b1-3)GalNAc): -0.306
- glycan array binding signal (z-score) [20]: 0.405
- glycan array binding signal (z-score) [21]: -0.54
